{"source": "PubChem BioAssay AID1508588 (Peter MacCallum Cancer Centre, 2020)", "purpose": "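Genome-wide search for knock-downs that heighten vemurafenib action in melanoma cells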 (primary screen)", "cells": "human WM266.4 melanoma cells (BRAF V600 mutant)", "reagent": "siRNA pool against human genes, 40 nM", "duration": "96 h from transfection to read-out", "conditions": "vemurafenib 300 nM (about IC25), added 48 h after transfection, for 48 h; comparison arm got DMSO vehicle only", "measured": "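Ratios to non-targeting siRNA for cell gain, counted as DAPI nuclei after minus before drug and averaged over two replicates, and for absorbance-read medium lactate per cell; both binned into fold-change classes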", "reading the numbers": "cell gain with vemurafenib: higher = more cell gain than with non-targeting siRNA; lactate per cell with vemurafenib: higher = more lactate made per cell", "hit rule": "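Enhancement is called by pairing each knock-down's vehicle-arm and drug-arm fold-change classes for viability or glycolysis; which class combinations qualify is not given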", "calls": "active = enhances vemurafenib effect; inactive = no enhancement seen", "note": "The whole screen tested about 18,000 reagents; below is an unselected part. Over the whole deposit, 790 (4.4%) were called active. 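Calls rest on a combination of fold-change classes in drug and vehicle arms, not all shown here.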 A number with no mark means an inactive call."}
{"Target gene":"LIPC","cell gain with vemurafenib":0.68,"lactate per cell with vemurafenib":0.79}
{"Target gene":"RASSF2","cell gain with vemurafenib":0.4,"lactate per cell with vemurafenib":1.01}
{"Target gene":"PNPLA1","cell gain with vemurafenib":0.76,"lactate per cell with vemurafenib":0.88}
{"Target gene":"ATOH7","cell gain with vemurafenib":0.73,"lactate per cell with vemurafenib":0.98}
{"Target gene":"HFE","cell gain with vemurafenib":0.44,"lactate per cell with vemurafenib":1.15}
{"Target gene":"ECEL1","cell gain with vemurafenib":0.68,"lactate per cell with vemurafenib":0.96}
{"Target gene":"ZC2HC1A","cell gain with vemurafenib":0.08,"lactate per cell with vemurafenib":2.25}
{"Target gene":"RNFT2","cell gain with vemurafenib":0.02,"lactate per cell with vemurafenib":1.06}
{"Target gene":"TIMM44","cell gain with vemurafenib":0.24,"lactate per cell with vemurafenib":0.26}
{"Target gene":"ERC2","cell gain with vemurafenib":0.7,"lactate per cell with vemurafenib":0.72}
{"Target gene":"SSX7","cell gain with vemurafenib":0.37,"lactate per cell with vemurafenib":2.38}
{"Target gene":"OR1B1","cell gain with vemurafenib":0.21,"lactate per cell with vemurafenib":0.87}
{"Target gene":"FBXW10","cell gain with vemurafenib":0.64,"lactate per cell with vemurafenib":1.13}
{"Target gene":"CACNA1H","cell gain with vemurafenib":0.66,"lactate per cell with vemurafenib":1.27}
{"Target gene":"GMNN","cell gain with vemurafenib":0.49,"lactate per cell with vemurafenib":0.9}
{"Target gene":"RAB35","cell gain with vemurafenib":0.68,"lactate per cell with vemurafenib":0.7}
{"Target gene":"PPP6R3","cell gain with vemurafenib":0.89,"lactate per cell with vemurafenib":1.2}
{"Target gene":"ACTR3","cell gain with vemurafenib":-0.04,"lactate per cell with vemurafenib":-0.16}
{"Target gene":"PLIN4","cell gain with vemurafenib":0.79,"lactate per cell with vemurafenib":0.9}
{"Target gene":"XPOT","cell gain with vemurafenib":0.89,"lactate per cell with vemurafenib":0.37}
{"Target gene":"NUDT18","cell gain with vemurafenib":0.94,"lactate per cell with vemurafenib":0.61}

Already shown: 2 of the entries above.
{"Target gene":"CACNA1H","cell gain with vemurafenib":0.66,"lactate per cell with vemurafenib":1.27}
{"Target gene":"GMNN","cell gain with vemurafenib":0.49,"lactate per cell with vemurafenib":0.9}

Additional reagents follow:
{"Target gene":"NAGLU","cell gain with vemurafenib":0.69,"lactate per cell with vemurafenib":0.8}
{"Target gene":"TFEB","cell gain with vemurafenib":0.78,"lactate per cell with vemurafenib":1.19}
{"Target gene":"PLAAT5","cell gain with vemurafenib":0.65,"lactate per cell with vemurafenib":0.94}
{"Target gene":"CYP4B1","cell gain with vemurafenib":1.05,"lactate per cell with vemurafenib":0.78}
{"Target gene":"POLR2L","cell gain with vemurafenib":0.4,"lactate per cell with vemurafenib":1.17}
{"Target gene":"PTP4A1","cell gain with vemurafenib":0.99,"lactate per cell with vemurafenib":0.21}
{"Target gene":"CRIPT","cell gain with vemurafenib":0.8,"lactate per cell with vemurafenib":0.7}
{"Target gene":"TMEM125","cell gain with vemurafenib":0.27,"lactate per cell with vemurafenib":1.31}
{"Target gene":"PRDM5","cell gain with vemurafenib":0.95,"lactate per cell with vemurafenib":0.92}
{"Target gene":"TIMM13","cell gain with vemurafenib":0.51,"lactate per cell with vemurafenib":0.64}
{"Target gene":"CHRNA10","cell gain with vemurafenib":0.42,"lactate per cell with vemurafenib":1.77}
{"Target gene":"RBM19","cell gain with vemurafenib":0.39,"lactate per cell with vemurafenib":0.7}
{"Target gene":"KRTAP12-2","cell gain with vemurafenib":0.88,"lactate per cell with vemurafenib":0.63}
{"Target gene":"RTN4","cell gain with vemurafenib":0.55,"lactate per cell with vemurafenib":1.04}
{"Target gene":"RNASEH1","cell gain with vemurafenib":1.37,"lactate per cell with vemurafenib":0.53}
{"Target gene":"TBC1D21","cell gain with vemurafenib":0.49,"lactate per cell with vemurafenib":0.92}
{"Target gene":"AHCTF1","cell gain with vemurafenib":0.27,"lactate per cell with vemurafenib":1.64}
{"Target gene":"FKRP","cell gain with vemurafenib":0.29,"lactate per cell with vemurafenib":1.71}
{"Target gene":"CSE1L","cell gain with vemurafenib":0.5,"lactate per cell with vemurafenib":0.38}
